# Data published in PubChem BioAssay AID504834 (National Center for Advancing Translational Sciences (NCATS), 2011).
# The whole screen tested about 320,000 compounds, of which about 22,000 (6.9%) were called active. Inconclusive results, whose numbers are uncertain, are shown with a selection of clear calls. Calls follow the shape of the dose curve; as a rule, active = well fitted inhibition curve with a large enough effect; inconclusive = small, poorly fitted or top-dose-only effect, or another doubt; inactive = no such curve, though single readings can be large or run the other way. A potency beside an inconclusive call is a rough fit, not a confirmed value.
# Test: Primary qHTS for delayed death inhibitors of the malarial parasite plastid, 96 hour incubation
# Conditions: P. falciparum luciferase reporter growth; series mostly up to 28.7 µM
# How it was run: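 Parasite growth measured via integrated firefly luciferase reporter in P. falciparum. Infected erythrocytes at 2% hematocrit, 0.05% parasitemia final were treated 96 hours at 37 C under 5% CO2, and luminescence was read.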
# Potency is read from the fitted curve at half-maximal effect.
row,Compound,Potency
1,Cc1cccc(N(C)S(=O)(=O)c2ccc(-c3cnc(C4CC4)o3)cc2)c1,active: 14.7 µM
2,CCn1c(=O)c(CCC(=O)NCCN2CCOCC2)c(C)c2c(C)nn(-c3cccc(C)c3)c21,"inconclusive: 18.5 µM [inhibitor, single point]"
3,O=C(Cc1ccc(Cl)c(Cl)c1)Nc1ccccc1N1CCCC1,active: 11.7 µM
4,Cc1cc2nnc(SCC(=O)N3C(C)CCCC3C)n2c(N)n1 (configuration not stated),"inconclusive: 0.117 µM [inhibitor, full curve, poor fit]"
5,C/C(=N\NC(=O)c1ccoc1C)c1cccc2ccccc12,inactive
6,O=Cc1c(C(=O)O)n(Cc2ccc(F)cc2Cl)c2ccccc12,"inconclusive: 10.4 µM [inhibitor, partial curve]"
7,COC(=O)c1ccc2[nH]c3cccc(/C(=C/c4ccccc4)c4ccccc4)c3c2c1,active: 3.7 µM
8,CC(=O)c1cccc(NC(=O)CN(c2cccc(F)c2)S(C)(=O)=O)c1,"inconclusive: 18.5 µM [inhibitor, single point]"
9,CC1CN(c2ccc([N+](=O)[O-])c(N3CCCCC3)c2)CCN1 (configuration not stated),"inconclusive: 16.5 µM [inhibitor, partial curve, poor fit]"
10,C1CSC2(N1)C1CC3CC2CC(C1)C31NCCS1 (configuration not stated),"inconclusive: 0.131 µM [inhibitor, partial curve, poor fit]"
11,Cc1cccc(N2CCN(S(=O)(=O)c3ccc4c(c3)NC(=O)CO4)CC2)c1C,"inconclusive: 1.65 µM [inhibitor, full curve, poor fit]"
12,O=C(c1cccc(Cl)c1)N1CCN(C2CCCCCC2)CC1,"inconclusive: 2.62 µM [inhibitor, full curve]"
13,Cc1cc(NC(=O)CCC(=O)N(CC(=O)NCC2CCCO2)Cc2ccc(F)cc2)no1 (configuration not stated),"inconclusive: 18.5 µM [inhibitor, single point]"
14,CC1CCCC(C)N1C(=O)COC(=O)C1CCN(S(=O)(=O)c2ccc3c(c2)OCCO3)CC1 (configuration not stated),inactive
15,CCCNC(=O)NC(C)C12CC3CC(CC(C3)C1)C2 (configuration not stated),"inconclusive: 16.5 µM [inhibitor, partial curve, poor fit]"
16,Cc1cc2oc3c(c(=O)c2cc1C)C(c1ccc(F)cc1)N(CCCN1CCOCC1)C3=O (configuration not stated),active: 10.4 µM
17,Cc1c(C(=O)Nc2cccc3cccnc23)oc2ccccc12,"inconclusive: 0.0037 µM [inhibitor, full curve, poor fit]"
18,c1ccc(C2(c3ccccc3)CC2C2=NCCN2)cc1 (configuration not stated),active: 13.5 µM
19,Cc1ccc(S(=O)(=O)c2ccccc2)cc1S,inactive
20,COc1ccc(C(=O)C2CCCN(CCO)C2)c(C)c1 (configuration not stated),"inconclusive: 10.4 µM [inhibitor, single point]"
21,Cc1c(C(=O)N2CCN(c3ccccc3F)CC2)oc2c1C(=O)CC(C)(C)C2,"inconclusive: 18.5 µM [inhibitor, single point]"
22,O=[N+]([O-])c1c2ccccc2cc2ccccc12,"inconclusive: 0.165 µM [inhibitor, full curve, poor fit]"
23,COc1ccc(NC(=O)N2CCC(C(=O)c3ccc(F)cc3)CC2)cc1,inactive
24,O=C(/C(N=Nc1cccc([N+](=O)[O-])c1)=C(/O)c1ccc(Br)cc1)C(F)(F)F,"inconclusive: 1.47 µM [inhibitor, partial curve, poor fit]"

row,Compound,Potency
1,C=CCn1c(SCC(=O)NC2CCCCC2)nc2ccccc2c1=O,inactive
2,O=C(CSc1nnc(CNC(=O)c2cccs2)o1)c1ccccc1,"inconclusive: 14.7 µM [inhibitor, single point]"
3,Cc1cc(C)n(C(=O)c2ccc(NC(=O)CC(C)C)cc2)n1,"inconclusive: 1.65 µM [inhibitor, full curve, poor fit]"
4,CCCC(=O)Nc1nc2ccc(S(=O)(=O)N3CCCCC3)cc2s1,"inconclusive: 8.28 µM [inhibitor, partial curve]"
5,COc1cc(NC(=O)c2cc3ccccc3o2)ccc1NC(=O)c1ccco1,inactive
6,Cc1c(Cl)cccc1NC(=O)CSc1ccc(-c2cccnc2)nn1,"inconclusive: 3.29 µM [inhibitor, full curve, poor fit]"
7,CCOC(=O)Nc1ccc(Oc2ccccc2)cc1,"inconclusive: 13.1 µM [inhibitor, single point]"
8,O=C(O)CSc1nnnn1-c1ccc2c(c1)OCCO2,inactive
9,O=C(O)CN1C(=O)C(=O)N(Cc2ccc(C(F)(F)F)cc2)C1=O,inactive
10,COc1ccccc1NC(=O)c1cc(S(=O)(=O)N2CCCC2)cn1C,"inconclusive: 2.94 µM [inhibitor, full curve]"
11,CC(C)c1ccc(/C=N/NC(=O)c2cccc(Cl)c2)cc1,"inconclusive: 10.4 µM [inhibitor, single point]"
12,Cc1csc(NC(=O)CSCC(=O)O)c1-c1nc2ccccc2s1,inactive
13,CCCc1cc(=O)oc2c3c(cc(OCC(=O)N4CCC[C@H]4C(=O)O)c12)OC(C)(C)CC3,"inconclusive: 16.5 µM [inhibitor, partial curve, poor fit]"
14,CCOC(=O)C1(Cc2ccccc2)CCCN(C(=O)C=C(C)C)C1 (configuration not stated),inactive
15,COc1ccc(CN(Cc2cccn2C)S(=O)(=O)c2cccc(C(F)(F)F)c2)cc1,"inconclusive: 16.5 µM [inhibitor, single point]"
16,O=C(CN1CCCCCCC1)Nc1ccc(Cl)cc1Cl,inactive
17,O=C1ON=C(c2ccccc2[N+](=O)[O-])/C1=C/c1cccc([N+](=O)[O-])c1O,"inconclusive: 14.7 µM [inhibitor, single point]"
18,CCOc1ccc(/C=C/C(=O)Nc2ccc3[nH]c(=O)[nH]c3c2)cc1,inactive
19,C#C[C@]1(O)CC[C@@H]2[C@H]3CCC4=CCCC[C@@H]4[C@@H]3CC[C@@]21C,inactive
20,COc1ccc(NC(=O)CN(C)C(=O)c2ccc(-c3cccc(C(F)(F)F)c3)o2)cc1,active: 0.37 µM
21,Cc1ccccc1OCCCC(=O)Nc1ccc2c(c1)OCO2,inactive
22,CCn1cc[n+](C)c1P(c1ccccc1)c1ccccc1,"inconclusive: 0.522 µM [inhibitor, full curve]"
23,CC(=O)Nc1ccc(Sc2ccccc2C(=O)O)cc1,"inconclusive: 6.57 µM [inhibitor, partial curve, poor fit]"
24,COc1cccc(CNC(=O)CCCCCNC(=O)N2CCn3c2nc2ccccc23)c1,"inconclusive: 13.1 µM [inhibitor, partial curve, poor fit]"

# Quoted from above for reference:
row,Compound,Potency
7,CCOC(=O)Nc1ccc(Oc2ccccc2)cc1,"inconclusive: 13.1 µM [inhibitor, single point]"
8,O=C(O)CSc1nnnn1-c1ccc2c(c1)OCCO2,inactive
9,O=C(O)CN1C(=O)C(=O)N(Cc2ccc(C(F)(F)F)cc2)C1=O,inactive
10,COc1ccccc1NC(=O)c1cc(S(=O)(=O)N2CCCC2)cn1C,"inconclusive: 2.94 µM [inhibitor, full curve]"
11,CC(C)c1ccc(/C=N/NC(=O)c2cccc(Cl)c2)cc1,"inconclusive: 10.4 µM [inhibitor, single point]"

# (further entries)

row,Compound,Potency
1,COc1ccc(/C=C/c2nnc(NC(=O)CSc3ccc(C)cc3)s2)cc1,"inconclusive: 2.33 µM [inhibitor, partial curve, poor fit]"
2,O=C(O)c1ccccc1NCc1ccncc1,"inconclusive: 0.657 µM [inhibitor, full curve, poor fit]"
3,CC(C)Cc1n[nH]c(=O)[nH]1,"inconclusive: 4.65 µM [inhibitor, partial curve, poor fit]"
4,Cc1cccc(NC(=O)CSc2ccc(-c3cccs3)nn2)c1C,inactive
5,CC(C)(C)NC(=O)c1cccc(NC(=O)c2ccc3c(c2)C(=O)N(C(C)(C)C)C3=O)c1,inactive
6,COc1cc(C(=O)NCC2CCCO2)ccc1OCc1ccccc1Cl (configuration not stated),inactive
7,COc1cc(-c2nc(-c3cccnc3)no2)cc(OC)c1OC,inactive
8,Cc1ccccc1C(=O)Nc1nnc(-c2ccc(F)cc2)o1,"inconclusive: 9.28 µM [inhibitor, single point]"
9,O=C(Nc1ccc2c(c1)CCC2)c1cccc(S(=O)(=O)N2CCN(c3ccc(F)cc3)CC2)c1,active: 9.28 µM
10,CCN1CCN(Cc2ccc(C(=O)Nc3ccc(C)c(NCc4cnc(NC(=O)OC)cn4)c3)cc2C(F)(F)F)CC1,active: 0.37 µM
11,COc1ccc(NC(=O)CN(C)C(=O)C2=NN(c3ccccc3)C(=O)CC2)cc1,inactive
12,COc1ccc(-c2cn(CCC(=O)NCc3ccc(C)cc3)c(CCN)n2)cc1,"inconclusive: 18.5 µM [inhibitor, single point]"
13,O=C(CCCn1cc([N+](=O)[O-])cn1)NCc1ccccc1,"inconclusive: 18.5 µM [inhibitor, single point]"
14,Cc1ccccc1NC(=S)NCc1ccc2[nH]c3c(c2c1)CCCC3,"inconclusive: 10.4 µM [inhibitor, partial curve, poor fit]"
15,Cc1ccc(S(=O)(=O)N2CCOCC2)cc1NC(=O)CSc1nc2ccccc2c(=O)n1Cc1ccccc1,active: 5.22 µM
16,C[C@H](NC(=O)c1ccccc1Cl)C(=O)OCc1cn2cc(Cl)ccc2n1,inactive
17,CCOCCc1nnc(NC(=O)CCS(=O)(=O)c2ccccc2)s1,inactive
18,COc1ccc2sc(-c3ccccc3OC)c(C#CCCO)c2c1,"inconclusive: 8.28 µM [inhibitor, single point]"
19,Cc1ccc(/C=C2/N=C(c3ccccc3)NNC2=O)cc1,"inconclusive: 9.28 µM [inhibitor, single point]"
20,CSc1ccc(S(=O)(=O)NCC(=O)OCC(=O)N2CCCCC2C)cc1[N+](=O)[O-] (configuration not stated),inactive
21,COc1ccc(CCNC(=O)Cn2c(=O)n(-c3ccc(F)cc3F)c(=O)c3sccc32)cc1OC,"inconclusive: 10.4 µM [inhibitor, single point]"
22,COc1ccc(-n2c(=O)c3ccccc3n(CC(=O)Nc3cccc(OC)c3)c2=O)cc1,"inconclusive: 10.4 µM [inhibitor, partial curve]"
23,COc1ccccc1-c1cc(C(F)(F)F)nc(S(=O)(=O)CCCC(=O)N2CCCCC2C)n1 (configuration not stated),inactive
24,O=C1CCN(Cc2ccccc2)CCN1[C@H](CSc1ccccc1)Cc1ccccc1,"inconclusive: 10.4 µM [inhibitor, single point]"

# Pulled by structure from the entries so far, 2 records:
row,Compound,Potency
17,CCOCCc1nnc(NC(=O)CCS(=O)(=O)c2ccccc2)s1,inactive
7,COc1cc(-c2nc(-c3cccnc3)no2)cc(OC)c1OC,inactive
